Tested on: Recoverin
Experiment: BSI free-solution binding assay
Method: None have an indefinite shelf life.
Several approaches can be used to find this value.
Independent of this prediction, free-solution measurements were performed with BSI to determine the KD for both the recoverin and CAII systems. The saturation isotherm binding curves for these experiments are presented as blue lines in FIG. 15A and FIG. 15B. To further illustrate the correlation between measured and estimated FreeSRF, χexp values were plotted on FIG. 13A and FIG. 13B showing where they lie on the training-set line.

## [Ca+2] [Ca^2+]
Binding signal, receptor Recoverin
  BSI ΔRIU: 4.42E−05 RIU
Molar refractometry from ρexp, β and CBmax
  Experimental Chi (RIU/M): 78.0 RIU/M

Reference: patent US11143649B2, “Free-solution response function interferometry” (VANDERBILT UNIVERSITY, priority 2016, dated 2021)
